The values below come from paper PMC5309361.

Chains of the proteins cited; added tags and fusions are not shown. Residues count along the entry.
UniProt Q61056: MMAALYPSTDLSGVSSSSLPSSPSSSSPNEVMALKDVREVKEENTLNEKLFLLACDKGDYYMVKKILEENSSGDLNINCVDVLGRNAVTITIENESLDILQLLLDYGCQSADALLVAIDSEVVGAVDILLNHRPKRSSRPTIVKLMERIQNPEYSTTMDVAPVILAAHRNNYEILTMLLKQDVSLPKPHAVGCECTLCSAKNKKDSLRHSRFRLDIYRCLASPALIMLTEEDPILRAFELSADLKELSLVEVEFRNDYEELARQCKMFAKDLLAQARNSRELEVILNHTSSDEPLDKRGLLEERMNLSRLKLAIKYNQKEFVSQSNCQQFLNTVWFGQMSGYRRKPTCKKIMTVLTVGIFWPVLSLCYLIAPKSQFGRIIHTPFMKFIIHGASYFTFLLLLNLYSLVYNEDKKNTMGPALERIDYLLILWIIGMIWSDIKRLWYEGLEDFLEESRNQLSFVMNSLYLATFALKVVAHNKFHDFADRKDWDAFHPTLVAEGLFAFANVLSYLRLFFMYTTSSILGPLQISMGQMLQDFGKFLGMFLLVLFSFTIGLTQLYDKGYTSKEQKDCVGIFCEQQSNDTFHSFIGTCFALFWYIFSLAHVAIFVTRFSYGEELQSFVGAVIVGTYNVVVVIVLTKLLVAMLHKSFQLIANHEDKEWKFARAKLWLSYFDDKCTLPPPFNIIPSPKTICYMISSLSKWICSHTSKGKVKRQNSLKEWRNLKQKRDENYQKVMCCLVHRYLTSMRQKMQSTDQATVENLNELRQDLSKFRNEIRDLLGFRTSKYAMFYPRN
UniProt P70302, residues 23-685: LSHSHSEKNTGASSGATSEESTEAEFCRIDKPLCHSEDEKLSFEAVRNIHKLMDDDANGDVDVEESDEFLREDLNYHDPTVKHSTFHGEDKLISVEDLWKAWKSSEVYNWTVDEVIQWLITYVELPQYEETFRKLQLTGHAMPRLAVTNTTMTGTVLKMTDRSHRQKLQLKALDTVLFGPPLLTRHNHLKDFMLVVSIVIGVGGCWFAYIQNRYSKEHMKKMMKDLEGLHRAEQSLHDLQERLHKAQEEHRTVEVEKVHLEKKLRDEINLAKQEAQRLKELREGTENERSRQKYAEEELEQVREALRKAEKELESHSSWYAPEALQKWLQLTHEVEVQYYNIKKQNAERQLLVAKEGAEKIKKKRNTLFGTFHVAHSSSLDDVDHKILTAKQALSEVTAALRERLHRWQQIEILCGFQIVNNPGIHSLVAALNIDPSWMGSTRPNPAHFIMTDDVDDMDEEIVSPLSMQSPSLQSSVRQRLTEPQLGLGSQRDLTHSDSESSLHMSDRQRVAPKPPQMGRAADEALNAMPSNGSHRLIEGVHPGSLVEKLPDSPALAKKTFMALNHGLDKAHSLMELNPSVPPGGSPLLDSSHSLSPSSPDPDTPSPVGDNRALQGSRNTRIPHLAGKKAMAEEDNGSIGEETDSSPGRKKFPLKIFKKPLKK

No constants are given. Whether binding was seen depends on the method and setting. Binding seen in cells or lysates may run through a third protein. Some results given as binding are weak or reduced against the parent protein; the word gives no strength.

Assay [1] addresses canonical transient receptor potential channel 1 (TRPC1), mouse (mouse (endogenous in mesenteric artery VSMCs)) (UniProt Q61056). The assay can be described thus: co-IP; primary cultured WT mouse mesenteric artery VSMC lysates, BAPTA-AM; precipitating antibody not given.
For assay [2] the target is unchanged. The assay can be described thus: proximity ligation; Duolink in situ PLA on fixed, Triton-permeabilised WT mouse mesenteric artery VSMCs treated with BAPTA-AM for 10 min or noradrenaline for 5 min.
The target is the same in assay [3]. The assay can be described thus: proximity ligation; Duolink in situ PLA on fixed, Triton-permeabilised WT mouse mesenteric artery VSMCs, unstimulated.

As to “stromal interaction molecule 1 (STIM1), mouse (from UniProt P70302 23-685)”, the binding entry is listed as “binds” in assay [1], “binds” in assay [2] and “no binding (condition: unstimulated cells (no BAPTA-AM))” in assay [3].
